Experimental data: PubChem BioAssay AID1224830 (NIAID, 2016)
Assay: 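Genes whose knock-down alters the TNF-alpha reporter response to LPS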 (primary screen). Cells: human THP-1 monocytic leukaemia cells, TNF dual-luciferase reporter clone, PMA-differentiated to macrophage-like cells. Reagent: siRNA pool against human genes, 50 nM. Timing: LPS for 4 h, given about 3 days after siRNA transfection. Conditions: bacterial LPS (TLR4 ligand), 10 ng/ml. Measurement: 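TNF firefly reporter luminescence divided by renilla, normalised to the plate median, then turned into a robust z-score for each replicate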. Direction: TNF reporter robust z-score: higher = stronger TNF reporter response to LPS. Hit rule: 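Each well counts as active if its z-score is over 2.8 or under -1.5; controls are left without a call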.
Shown is a random part of about 18,000 reagents. Over the whole deposit, about 2,900 (16%) were called active. 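Calls are made per well; low scores hint the gene aids the LPS response, high scores that it dampens it.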 A number with no mark means an inactive call. Repeated entries: four replicate wells of each siRNA pool.

ADGRB1: TNF reporter robust z-score = 0.17
ADGRB1: TNF reporter robust z-score = 0.95
ADGRB1: TNF reporter robust z-score = 1.61
ADGRB1: TNF reporter robust z-score = 1.36
C22orf23: TNF reporter robust z-score = 0.04
C22orf23: TNF reporter robust z-score = 0.87
C22orf23: TNF reporter robust z-score = 0.43
C22orf23: TNF reporter robust z-score = 1.35
RNF170: TNF reporter robust z-score = 0.37
RNF170: TNF reporter robust z-score = -0.55
RNF170: TNF reporter robust z-score = -1.71 (active)
RNF170: TNF reporter robust z-score = -0.93
TRAPPC13: TNF reporter robust z-score = -1.1
TRAPPC13: TNF reporter robust z-score = -1.49
TRAPPC13: TNF reporter robust z-score = -1.01
TRAPPC13: TNF reporter robust z-score = -0.85

Targets above whose gene name starts with T or t (4):
TRAPPC13: TNF reporter robust z-score = -1.1
TRAPPC13: TNF reporter robust z-score = -1.49
TRAPPC13: TNF reporter robust z-score = -1.01
TRAPPC13: TNF reporter robust z-score = -0.85

Next reagents follow:
LRRC73: TNF reporter robust z-score = -1.89 (active)
LRRC73: TNF reporter robust z-score = -1.36
LRRC73: TNF reporter robust z-score = -1.26
LRRC73: TNF reporter robust z-score = -1.33
CLDN8: TNF reporter robust z-score = 2.3
CLDN8: TNF reporter robust z-score = 1.41
CLDN8: TNF reporter robust z-score = 2.95 (active)
CLDN8: TNF reporter robust z-score = 0.94
UQCR10: TNF reporter robust z-score = 0.52
UQCR10: TNF reporter robust z-score = 0.81
UQCR10: TNF reporter robust z-score = 0.5
UQCR10: TNF reporter robust z-score = -0.27
PRDM7: TNF reporter robust z-score = 0.88
PRDM7: TNF reporter robust z-score = 1.97
PRDM7: TNF reporter robust z-score = 0.2
BBS2: TNF reporter robust z-score = 0.39
BBS2: TNF reporter robust z-score = 1.14
BBS2: TNF reporter robust z-score = 0.47
BBS2: TNF reporter robust z-score = -0.18
NOD2: TNF reporter robust z-score = 0.84
NOD2: TNF reporter robust z-score = 1.18
NOD2: TNF reporter robust z-score = 0.58
NOD2: TNF reporter robust z-score = 0.64
MTMR12: TNF reporter robust z-score = -0.34
MTMR12: TNF reporter robust z-score = -0.7
MTMR12: TNF reporter robust z-score = 0.5
MTMR12: TNF reporter robust z-score = -0.26
ART5: TNF reporter robust z-score = 1.55
ART5: TNF reporter robust z-score = 4.6 (active)
ART5: TNF reporter robust z-score = 0.6
ART5: TNF reporter robust z-score = 1.29
